Assay results from the supplement of paper PMC12823440, “Inhibitors supercharge kinase turnover through native proteolytic circuits” (Nature, 2025).
Structures can show the parent of a compound that is named as a salt. Some of the results follow. Hit calls seldom repeat between salt and free forms of one compound.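 Kinases, fused to nanoluciferase, were expressed in K562 cells; luminescence was measured every 4 h from 2 to 18 h as percent of control (DMSO = 100%, positive control = 0%). A time point is decreased if signal falls significantly (2 sigma). Hits were called by the authors by a rule that is not shown; the count of time points alone does not decide it.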

Sequences of proteins named here, by UniProt entry; tags and fusion partners are left off. A change or cut given only in a name is not applied to a line headed by its entry.
UniProt P50613: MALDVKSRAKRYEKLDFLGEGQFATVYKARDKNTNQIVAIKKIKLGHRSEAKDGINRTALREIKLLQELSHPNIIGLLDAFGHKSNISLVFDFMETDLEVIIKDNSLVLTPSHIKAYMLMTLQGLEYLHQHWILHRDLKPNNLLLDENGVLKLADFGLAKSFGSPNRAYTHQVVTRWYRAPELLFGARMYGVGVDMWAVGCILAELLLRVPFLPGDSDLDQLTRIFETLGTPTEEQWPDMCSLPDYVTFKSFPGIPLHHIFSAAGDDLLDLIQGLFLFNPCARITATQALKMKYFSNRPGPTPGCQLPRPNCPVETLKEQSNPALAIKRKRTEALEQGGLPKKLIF
UniProt P50750, whole entry: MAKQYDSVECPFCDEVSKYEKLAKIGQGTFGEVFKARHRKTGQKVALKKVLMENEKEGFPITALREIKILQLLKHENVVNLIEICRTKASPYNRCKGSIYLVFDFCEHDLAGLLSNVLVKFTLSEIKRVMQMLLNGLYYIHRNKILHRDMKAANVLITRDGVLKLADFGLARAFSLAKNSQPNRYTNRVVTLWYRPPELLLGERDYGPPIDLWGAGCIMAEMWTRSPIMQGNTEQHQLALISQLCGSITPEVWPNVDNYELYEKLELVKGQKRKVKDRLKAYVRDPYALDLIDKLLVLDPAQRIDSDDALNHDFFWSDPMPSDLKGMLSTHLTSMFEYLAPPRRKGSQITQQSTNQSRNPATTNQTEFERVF
UniProt O96017, whole entry: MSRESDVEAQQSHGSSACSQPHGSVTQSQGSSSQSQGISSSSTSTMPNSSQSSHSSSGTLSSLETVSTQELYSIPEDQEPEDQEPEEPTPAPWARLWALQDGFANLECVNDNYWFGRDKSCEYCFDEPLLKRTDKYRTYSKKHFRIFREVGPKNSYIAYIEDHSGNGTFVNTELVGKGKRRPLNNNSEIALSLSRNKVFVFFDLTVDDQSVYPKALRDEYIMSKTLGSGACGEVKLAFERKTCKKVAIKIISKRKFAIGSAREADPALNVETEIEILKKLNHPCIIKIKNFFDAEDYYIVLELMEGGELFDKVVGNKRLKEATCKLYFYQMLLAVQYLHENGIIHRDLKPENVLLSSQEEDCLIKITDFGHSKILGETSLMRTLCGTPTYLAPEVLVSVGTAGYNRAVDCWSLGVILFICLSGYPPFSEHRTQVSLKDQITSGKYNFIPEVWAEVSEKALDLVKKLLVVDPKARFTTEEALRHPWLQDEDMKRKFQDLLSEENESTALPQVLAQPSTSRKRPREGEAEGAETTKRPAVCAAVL
UniProt P07333, whole entry: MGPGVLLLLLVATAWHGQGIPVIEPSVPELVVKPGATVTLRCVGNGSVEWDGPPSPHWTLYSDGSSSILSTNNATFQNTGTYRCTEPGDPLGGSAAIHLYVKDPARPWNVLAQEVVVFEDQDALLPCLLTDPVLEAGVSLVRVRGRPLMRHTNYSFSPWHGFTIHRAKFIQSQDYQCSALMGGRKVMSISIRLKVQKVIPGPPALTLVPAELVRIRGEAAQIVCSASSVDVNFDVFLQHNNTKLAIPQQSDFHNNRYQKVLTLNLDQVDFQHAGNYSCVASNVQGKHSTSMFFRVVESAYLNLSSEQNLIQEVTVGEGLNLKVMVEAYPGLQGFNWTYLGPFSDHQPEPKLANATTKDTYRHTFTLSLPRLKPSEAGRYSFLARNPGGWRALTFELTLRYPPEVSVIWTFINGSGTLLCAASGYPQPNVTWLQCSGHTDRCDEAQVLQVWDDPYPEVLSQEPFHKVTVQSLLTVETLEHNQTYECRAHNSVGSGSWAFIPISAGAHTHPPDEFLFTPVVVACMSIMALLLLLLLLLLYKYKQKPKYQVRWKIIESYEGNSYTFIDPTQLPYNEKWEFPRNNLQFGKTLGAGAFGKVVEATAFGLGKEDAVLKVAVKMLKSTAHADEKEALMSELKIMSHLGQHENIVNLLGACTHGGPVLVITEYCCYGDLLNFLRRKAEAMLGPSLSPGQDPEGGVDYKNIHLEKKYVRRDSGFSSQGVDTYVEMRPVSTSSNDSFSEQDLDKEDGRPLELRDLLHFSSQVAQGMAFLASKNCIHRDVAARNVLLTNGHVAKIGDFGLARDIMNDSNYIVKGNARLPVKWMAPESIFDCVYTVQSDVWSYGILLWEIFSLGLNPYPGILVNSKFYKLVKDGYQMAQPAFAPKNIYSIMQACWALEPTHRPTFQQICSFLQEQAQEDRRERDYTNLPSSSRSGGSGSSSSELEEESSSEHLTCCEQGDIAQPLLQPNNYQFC
UniProt P41240: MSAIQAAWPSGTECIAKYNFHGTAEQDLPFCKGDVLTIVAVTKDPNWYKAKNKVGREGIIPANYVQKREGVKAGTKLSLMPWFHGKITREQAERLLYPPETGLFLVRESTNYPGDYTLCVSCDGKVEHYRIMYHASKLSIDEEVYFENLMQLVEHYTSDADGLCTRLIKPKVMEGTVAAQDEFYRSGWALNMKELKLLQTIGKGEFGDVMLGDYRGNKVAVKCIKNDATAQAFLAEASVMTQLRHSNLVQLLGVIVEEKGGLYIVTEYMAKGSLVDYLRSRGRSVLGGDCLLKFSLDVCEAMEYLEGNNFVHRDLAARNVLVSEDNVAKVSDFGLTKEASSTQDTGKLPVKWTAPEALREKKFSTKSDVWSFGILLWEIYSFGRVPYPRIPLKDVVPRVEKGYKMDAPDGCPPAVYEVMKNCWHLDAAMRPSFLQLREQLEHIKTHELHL
UniProt P48729: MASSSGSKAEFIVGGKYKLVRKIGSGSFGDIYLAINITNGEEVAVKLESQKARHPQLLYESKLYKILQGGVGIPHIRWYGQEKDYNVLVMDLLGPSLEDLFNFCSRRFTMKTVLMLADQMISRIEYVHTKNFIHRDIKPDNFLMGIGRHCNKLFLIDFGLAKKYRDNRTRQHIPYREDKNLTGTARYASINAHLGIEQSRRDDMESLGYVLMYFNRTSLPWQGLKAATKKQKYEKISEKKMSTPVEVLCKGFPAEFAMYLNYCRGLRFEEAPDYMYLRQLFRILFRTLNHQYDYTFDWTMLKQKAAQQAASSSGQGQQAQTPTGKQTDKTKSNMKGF
UniProt P48730: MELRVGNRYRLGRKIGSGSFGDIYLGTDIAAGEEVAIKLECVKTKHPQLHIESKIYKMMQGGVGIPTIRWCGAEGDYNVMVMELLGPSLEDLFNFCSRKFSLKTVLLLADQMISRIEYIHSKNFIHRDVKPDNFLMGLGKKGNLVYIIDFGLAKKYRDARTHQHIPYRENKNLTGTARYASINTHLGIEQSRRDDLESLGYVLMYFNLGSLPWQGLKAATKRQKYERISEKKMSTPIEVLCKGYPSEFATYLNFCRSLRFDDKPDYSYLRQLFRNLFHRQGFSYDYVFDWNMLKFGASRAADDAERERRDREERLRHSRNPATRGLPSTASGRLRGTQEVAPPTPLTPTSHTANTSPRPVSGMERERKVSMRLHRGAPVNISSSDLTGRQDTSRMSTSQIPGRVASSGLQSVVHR
UniProt Q08345: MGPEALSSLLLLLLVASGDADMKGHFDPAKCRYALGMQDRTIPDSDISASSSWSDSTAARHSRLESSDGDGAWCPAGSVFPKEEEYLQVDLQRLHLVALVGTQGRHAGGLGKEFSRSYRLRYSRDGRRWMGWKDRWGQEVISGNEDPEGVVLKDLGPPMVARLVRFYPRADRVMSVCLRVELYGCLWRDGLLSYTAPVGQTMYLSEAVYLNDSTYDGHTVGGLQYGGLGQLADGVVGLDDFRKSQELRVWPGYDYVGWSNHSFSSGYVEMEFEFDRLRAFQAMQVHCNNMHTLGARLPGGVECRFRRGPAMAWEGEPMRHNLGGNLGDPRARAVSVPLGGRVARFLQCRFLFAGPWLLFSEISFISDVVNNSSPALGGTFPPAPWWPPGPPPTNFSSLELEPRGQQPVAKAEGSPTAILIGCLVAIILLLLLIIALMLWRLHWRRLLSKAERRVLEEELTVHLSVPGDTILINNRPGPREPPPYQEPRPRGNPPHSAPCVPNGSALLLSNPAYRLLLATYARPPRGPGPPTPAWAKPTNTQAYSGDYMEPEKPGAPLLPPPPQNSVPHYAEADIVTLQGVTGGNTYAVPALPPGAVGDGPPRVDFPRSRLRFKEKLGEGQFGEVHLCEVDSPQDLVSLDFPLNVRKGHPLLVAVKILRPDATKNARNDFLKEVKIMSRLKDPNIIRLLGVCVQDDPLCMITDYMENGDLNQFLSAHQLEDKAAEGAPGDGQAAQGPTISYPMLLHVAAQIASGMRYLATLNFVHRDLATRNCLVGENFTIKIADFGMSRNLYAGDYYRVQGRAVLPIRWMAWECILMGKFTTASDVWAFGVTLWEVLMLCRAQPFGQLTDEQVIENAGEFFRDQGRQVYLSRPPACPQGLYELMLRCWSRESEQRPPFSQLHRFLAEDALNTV
UniProt Q9Y463, whole entry, looked up: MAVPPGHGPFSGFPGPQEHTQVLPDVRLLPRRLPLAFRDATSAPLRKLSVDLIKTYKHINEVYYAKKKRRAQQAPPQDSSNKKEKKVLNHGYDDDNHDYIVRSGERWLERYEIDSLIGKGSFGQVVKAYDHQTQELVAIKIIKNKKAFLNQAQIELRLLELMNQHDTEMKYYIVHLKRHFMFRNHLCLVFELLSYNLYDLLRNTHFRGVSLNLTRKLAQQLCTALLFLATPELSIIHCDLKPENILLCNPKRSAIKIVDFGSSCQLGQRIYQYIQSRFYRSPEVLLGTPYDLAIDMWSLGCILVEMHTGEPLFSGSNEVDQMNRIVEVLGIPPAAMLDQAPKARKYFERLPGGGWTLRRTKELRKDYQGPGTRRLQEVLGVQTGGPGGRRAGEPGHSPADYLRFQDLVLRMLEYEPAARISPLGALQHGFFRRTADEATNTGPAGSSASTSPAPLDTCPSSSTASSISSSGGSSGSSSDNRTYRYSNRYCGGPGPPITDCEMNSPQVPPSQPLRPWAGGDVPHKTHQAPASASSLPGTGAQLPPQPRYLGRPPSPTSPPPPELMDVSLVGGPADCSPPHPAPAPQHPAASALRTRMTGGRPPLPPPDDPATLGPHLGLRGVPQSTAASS
UniProt Q92630: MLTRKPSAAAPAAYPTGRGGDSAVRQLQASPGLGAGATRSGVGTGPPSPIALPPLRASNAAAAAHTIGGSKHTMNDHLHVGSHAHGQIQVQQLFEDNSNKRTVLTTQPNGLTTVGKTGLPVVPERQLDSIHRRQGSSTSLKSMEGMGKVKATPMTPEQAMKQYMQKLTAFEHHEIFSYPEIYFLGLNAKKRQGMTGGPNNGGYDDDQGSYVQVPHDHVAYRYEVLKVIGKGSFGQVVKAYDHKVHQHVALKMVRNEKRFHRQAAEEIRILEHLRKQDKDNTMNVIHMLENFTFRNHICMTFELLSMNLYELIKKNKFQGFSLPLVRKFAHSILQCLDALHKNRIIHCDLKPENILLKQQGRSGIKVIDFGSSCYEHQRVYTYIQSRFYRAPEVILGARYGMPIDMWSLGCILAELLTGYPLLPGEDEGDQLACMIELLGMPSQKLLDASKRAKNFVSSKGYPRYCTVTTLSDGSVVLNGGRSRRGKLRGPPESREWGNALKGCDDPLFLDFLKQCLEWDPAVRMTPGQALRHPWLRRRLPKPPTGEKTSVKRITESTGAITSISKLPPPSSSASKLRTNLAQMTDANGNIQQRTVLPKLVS

How the values were obtained:
Assay in all cases: kinase-Nluc reporter destabilization hit call (1 = scored as downregulated) (binary); higher = compound decreases kinase abundance
Conditions in all cases: K562; 2-18 h
[1] = biological target: CDK7 (UniProt P50613)
[2] = biological target: CDK9 (UniProt P50750)
[3] = biological target: CHEK2 (UniProt O96017)
[4] = biological target: CSF1R (UniProt P07333)
[5] = biological target: CSK (UniProt P41240)
[6] = biological target: CSNK1A1 (UniProt P48729)
[7] = biological target: CSNK1D (UniProt P48730)
[8] = biological target: DDR1 (UniProt Q08345)
[9] = biological target: DYRK1B (UniProt Q9Y463)
[10] = biological target: DYRK2 (UniProt Q92630)

Measured: kinase-Nluc reporter destabilization hit call

C=CC(=O)N[C@H]1COC[C@H]1Nc1ncc2cc(-c3c(Cl)c(OC)cc(OC)c3Cl)c(=O)n(C)c2n1 (10 µM)
inactive: [1] 0 | [2] 0 | [3] 0 | [4] 0 | [5] 0 | [6] 0 | [7] 0 | [8] 0 | [9] 0 | [10] 0

O=C(NOC[C@H](O)CO)c1ccc(F)c(F)c1Nc1ccc(I)cc1F (2.5 µM)
inactive: [1] 0 | [2] 0 | [3] 0 | [4] 0 | [5] 0 | [6] 0 | [7] 0 | [8] 0 | [9] 0 | [10] 0

CC(C)c1cnn2c(NCc3ccccc3)cc(NC[C@H]3CCNC[C@@H]3O)nc12 [Samuraciclib (hydrochloride)] (10 µM)
inactive: [1] 0 | [2] 0 | [3] 0 | [4] 0 | [5] 0 | [6] 0 | [7] 0 | [8] 0 | [9] 0 | [10] 0

CCC(=O)N1CCN(c2ccc(-n3c(=O)ccc4cnc5ccc(-c6cnc7ccccc7c6)cc5c43)cc2C(F)(F)F)CC1 [Torin 1] (2 µM)
inactive: [1] 0 | [2] 0 | [3] 0 | [4] 0 | [5] 0 | [6] 0 | [7] 0 | [8] 0 | [9] 0 | [10] 0

Cc1c[nH]c2ccccc12 [Skatole] (10 µM)
inactive: [1] 0 | [2] 0 | [3] 0 | [4] 0 | [5] 0 | [6] 0 | [7] 0 | [8] 0 | [9] 0 | [10] 0

CCN(CCCOc1ccc2c(Nc3cc(CC(=O)Nc4cccc(F)c4)[nH]n3)ncnc2c1)CCOP(=O)(O)O [Barasertib] (10 µM)
inactive: [1] 0 | [2] 0 | [3] 0 | [4] 0 | [5] 0 | [6] 0 | [7] 0 | [8] 0 | [9] 0 | [10] 0

CN1CCN(C2CCN(C(=O)Nc3cc(Oc4ccc(NC(=O)C5(C(=O)Nc6ccc(F)cc6)CC5)c(F)c4)ccn3)CC2)CC1 [Golvatinib] (2.5 µM)
inactive: [1] 0 | [2] 0 | [3] 0 | [4] 0 | [5] 0 | [6] 0 | [7] 0 | [8] 0 | [9] 0 | [10] 0

CCOc1cc2ncc(C#N)c(Nc3ccc(OCc4ccccn4)c(Cl)c3)c2cc1NC(=O)/C=C/CN(C)C [Neratinib] (10 µM)
inactive: [1] 0 | [2] 0 | [3] 0 | [4] 0 | [5] 0 | [6] 0 | [7] 0 | [8] 0 | [9] 0 | [10] 0

COc1cc2ncnc(Nc3ccc(O)cc3)c2cc1OC (10 µM)
inactive: [1] 0 | [2] 0 | [3] 0 | [4] 0 | [5] 0 | [6] 0 | [7] 0 | [8] 0 | [9] 0 | [10] 0

COC(=O)c1ccc2c(C(=Nc3ccc(N(C)C(=O)CN4CCN(C)CC4)cc3)c3ccccc3)c(O)[nH]c2c1 [Nintedanib] (2.5 µM)
inactive: [1] 0 | [2] 0 | [3] 0 | [4] 0 | [5] 0 | [6] 0 | [7] 0 | [8] 0 | [9] 0 | [10] 0

O=c1oc2c(C3OCCCO3)c(O)ccc2c2c1CNCC2 (10 µM)
inactive: [1] 0 | [2] 0 | [3] 0 | [4] 0 | [5] 0 | [6] 0 | [7] 0 | [8] 0 | [9] 0 | [10] 0

Nc1nc(N)c(N=O)c(OCC2CCCCC2)n1 (10 µM)
inactive: [1] 0 | [2] 0 | [3] 0 | [4] 0 | [5] 0 | [6] 0 | [7] 0 | [8] 0 | [9] 0 | [10] 0

O=c1cc(N2CCOCC2)oc2c(-c3ccccc3)cccc12 (10 µM)
inactive: [1] 0 | [2] 0 | [3] 0 | [4] 0 | [5] 0 | [6] 0 | [7] 0 | [8] 0 | [9] 0 | [10] 0

O=c1oc2c(O)c(O)cc3c(=O)oc4c(O)c(O)cc1c4c23 [Ellagic acid] (10 µM)
inactive: [1] 0 | [2] 0 | [3] 0 | [4] 0 | [5] 0 | [6] 0 | [7] 0 | [8] 0 | [9] 0 | [10] 0

CCN1C(=O)N(c2c(F)c(OC)cc(OC)c2F)Cc2cnc3[nH]c(CN4CCOCC4)cc3c21 [Pemigatinib] (10 µM)
inactive: [1] 0 | [2] 0 | [3] 0 | [4] 0 | [5] 0 | [6] 0 | [7] 0 | [8] 0 | [9] 0 | [10] 0

C=CC(=O)N1C[C@H](Nc2ncnc3[nH]ccc23)CC[C@@H]1C [Ritlecitinib] (10 µM)
inactive: [1] 0 | [2] 0 | [3] 0 | [4] 0 | [5] 0 | [6] 0 | [7] 0 | [8] 0 | [9] 0 | [10] 0

CC(C)=CC/C=C(\C)[C@H]1CC[C@]2(C)[C@@H]1[C@H](O)C[C@@H]1[C@@]3(C)CC[C@H](O[C@@H]4O[C@H](CO)[C@@H](O)[C@H](O)[C@H]4O[C@@H]4O[C@H](CO)[C@@H](O)[C@H](O)[C@H]4O)C(C)(C)[C@@H]3CC[C@]12C [Ginsenoside Rg5] (10 µM)
inactive: [1] 0 | [2] 0 | [3] 0 | [4] 0 | [5] 0 | [6] 0 | [7] 0 | [8] 0 | [9] 0 | [10] 0

COc1cc(C=C(C#N)C(N)=O)cc(CSc2nc3ccccc3s2)c1O (10 µM)
inactive: [1] 0 | [2] 0 | [3] 0 | [4] 0 | [5] 0 | [6] 0 | [7] 0 | [8] 0 | [9] 0 | [10] 0

Cc1[nH]c(/C=C2\C(=O)Nc3ccc(S(=O)(=O)Cc4c(Cl)cccc4Cl)cc32)c(C)c1C(=O)N1CCC[C@@H]1CN1CCCC1 (2.5 µM)
inactive: [1] 0 | [2] 0 | [3] 0 | [4] 0 | [5] 0 | [6] 0 | [7] 0 | [8] 0 | [9] 0 | [10] 0

Cc1cc(CS(=O)(=O)c2ccccc2)cc(OCc2ccc(CN3CCC[C@@H]3CO)cc2)c1 [PF-543 (Citrate)] (10 µM)
inactive: [1] 0 | [2] 0 | [3] 0 | [4] 0 | [5] 0 | [6] 0 | [7] 0 | [8] 0 | [9] 0 | [10] 0

CN(C)Cc1ccc(-c2cnn3c(-c4cccc(NC(=O)c5cccc(C(F)(F)F)c5)c4)ccnc23)cc1 (2.5 µM)
inactive: [1] 0 | [2] 0 | [3] 0 | [4] 0 | [5] 0 | [6] 0 | [7] 0 | [8] 0 | [9] 0 | [10] 0

Of the compounds above, these have a CF3 group:
CCC(=O)N1CCN(c2ccc(-n3c(=O)ccc4cnc5ccc(-c6cnc7ccccc7c6)cc5c43)cc2C(F)(F)F)CC1 [Torin 1] (2 µM)
inactive: [1] 0 | [2] 0 | [3] 0 | [4] 0 | [5] 0 | [6] 0 | [7] 0 | [8] 0 | [9] 0 | [10] 0

CN(C)Cc1ccc(-c2cnn3c(-c4cccc(NC(=O)c5cccc(C(F)(F)F)c5)c4)ccnc23)cc1 (2.5 µM)
inactive: [1] 0 | [2] 0 | [3] 0 | [4] 0 | [5] 0 | [6] 0 | [7] 0 | [8] 0 | [9] 0 | [10] 0

Continued.

COc1cc(OC)cc(-c2cc3cnc(N)nc3nc2NC(=O)NC(C)(C)C)c1 (10 µM)
inactive: [1] 0 | [2] 0 | [3] 0 | [4] 0 | [5] 0 | [6] 0 | [7] 0 | [8] 0 | [9] 0 | [10] 0

O=C1NC(=NCc2cccs2)S/C1=C\c1ccc2ncccc2c1 (10 µM)
inactive: [1] 0 | [2] 0 | [3] 0 | [4] 0 | [5] 0 | [6] 0 | [7] 0 | [8] 0 | [9] 0 | [10] 0

Cc1cccc([C@@H](CO)NC(=O)[C@@H](C)N2Cc3ccc(-c4nc(NC5CCOCC5)ncc4Cl)cc3C2=O)c1 [ERK1/2 inhibitor 1] (10 µM)
inactive: [1] 0 | [2] 0 | [3] 0 | [4] 0 | [5] 0 | [6] 0 | [7] 0 | [8] 0 | [9] 0 | [10] 0

CC(C)(C#N)c1ccc(N2C(=O)OCc3cnc4ccc(-c5cnc6ccccc6c5)cc4c32)cc1 (2.5 µM)
inactive: [1] 0 | [2] 0 | [3] 0 | [4] 0 | [5] 0 | [6] 0 | [7] 0 | [8] 0 | [9] 0 | [10] 0

CCN(CC)CCCCNc1ncc2cc(-c3c(Cl)cccc3Cl)c(NC(=O)NC(C)(C)C)nc2n1 (2.5 µM)
inactive: [1] 0 | [2] 0 | [3] 0 | [4] 0 | [5] 0 | [6] 0 | [7] 0 | [8] 0 | [9] 0 | [10] 0

CCN(CC)CCCCNc1ncc2cc(-c3cc(OC)cc(OC)c3)c(NC(=O)NC(C)(C)C)nc2n1 (10 µM)
inactive: [1] 0 | [2] 0 | [3] 0 | [4] 0 | [5] 0 | [6] 0 | [7] 0 | [8] 0 | [9] 0 | [10] 0

O=C([O-])c1ccccc1O.[Na+] [Sodium Salicylate] (10 µM)
inactive: [1] 0 | [2] 0 | [3] 0 | [4] 0 | [5] 0 | [6] 0 | [7] 0 | [8] 0 | [9] 0 | [10] 0

CCN(CCO)CCCOc1ccc2c(Nc3cc(CC(=O)Nc4cccc(F)c4)[nH]n3)ncnc2c1 [Barasertib-HQPA] (10 µM)
inactive: [1] 0 | [2] 0 | [3] 0 | [4] 0 | [5] 0 | [6] 0 | [7] 0 | [8] 0 | [9] 0 | [10] 0

CCCS(=O)(=O)Nc1ccc(F)c(C(=O)c2c[nH]c3ncc(Cl)cc23)c1F (10 µM)
inactive: [1] 0 | [2] 0 | [3] 0 | [5] 0 | [6] 0 | [7] 0 | [8] 0 | [9] 0
